Our source for the binding values is publication PMC12324092.

Chains of the proteins cited; added tags and fusions are not shown.
UniProt P70507: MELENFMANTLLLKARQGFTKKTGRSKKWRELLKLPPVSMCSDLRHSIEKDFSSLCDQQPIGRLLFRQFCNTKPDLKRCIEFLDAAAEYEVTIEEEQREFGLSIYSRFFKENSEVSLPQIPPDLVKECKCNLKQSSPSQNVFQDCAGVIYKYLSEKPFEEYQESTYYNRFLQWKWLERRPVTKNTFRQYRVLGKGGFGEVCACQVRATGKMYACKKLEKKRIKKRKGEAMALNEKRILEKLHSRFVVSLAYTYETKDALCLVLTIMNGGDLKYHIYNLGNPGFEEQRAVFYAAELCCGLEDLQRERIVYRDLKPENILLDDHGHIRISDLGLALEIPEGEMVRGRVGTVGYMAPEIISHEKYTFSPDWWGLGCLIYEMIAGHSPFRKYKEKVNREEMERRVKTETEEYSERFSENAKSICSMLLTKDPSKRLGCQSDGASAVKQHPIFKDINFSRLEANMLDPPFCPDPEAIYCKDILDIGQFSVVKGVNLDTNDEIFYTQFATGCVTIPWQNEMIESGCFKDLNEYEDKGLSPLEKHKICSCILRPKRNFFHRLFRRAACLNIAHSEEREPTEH

No constants are given. Whether binding was seen depends on the method and setting. Binding seen in cells or lysates may run through a third protein. Some entries that bind do so weakly or less than the wild type.

This assay concerns the target G protein-coupled receptor kinase 4 (rat (endogenous in renal cortex of WKY rats and SHRs)) (UniProt P70507). As to the kind of experiment: co-IP; lysate (300 ug protein/mL) of renal cortex of WKY rats and SHRs incubated with anti-GRK4 antibody (5 ug/mL) for 1 h and protein-A/G plus-agarose at 4°C overnight; immunoblot with anti-Mas receptor antibody; IgG as negative control, anti-Mas receptor antibody as positive control. For orientation: A western blot detects proteins with antibodies after separation by electrophoresis.

B1: Mas receptor (receptor, UniProt P12526 1-324)
chain: MDQSNMTSFAEEKAMNTSSRNASLGTSHPPIPIVHWVIMSISPLGFVENGILLWFLCFRMRRNPFTVYITHLSIADISLLFCIFILSIDYALDYELSSGHYYTIVTLSVTFLFGYNTGLYLLTAISVERCLSVLYPIWYRCHRPKHQSAFVCALLWALSCLVTTMEYVMCIDSGEESHSQSDCRAVIIFIAILSFLVFTPLMLVSSTILVVKIRKNTWASHSSKLYIVIMVTIIIFLIFAMPMRVLYLLYYEYWSTFGNLHNISLLFSTINSSANPFIYFFVGSSKKKRFRESLKVVLTRAFKDEMQPRRQEGNGNTVSIETVV
Regarding B1, the binding entry was “binds”.
